Measured values as given in the supplement of paper PMC12889115.
The other results are listed elsewhere or left out. These are raw signals, not scaled to a control.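 Primary screen: polymyxin B was added at a level permeabilizing Salmonella outer membranes while sparing inner membranes. DMSO wells, both with and without polymyxin B, established maximum growth. Plate-to-plate variation meant each plate was ranked on its own, and the lowest-OD600 compounds were selected as hits.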

System: Salmonella enterica serovar Typhimurium SL1344
Test: bacterial growth OD600 after 18 h with compound and polymyxin B; higher = more bacterial growth (less inhibition)
Conditions: 50 µM, Mueller-Hinton broth

SMILES | bacterial growth OD600 (polymyxin B 0.75 µg/mL) | bacterial growth OD600 (polymyxin B 1 µg/mL)
O=C(Cn1nnnc1CN1CCCC1)N1CCN(C2CCc3ccccc3C2)CC1 (centres undefined) | 0.825 | –
COc1ccccc1CCc1nc2ccccc2n1C1CCN(C(=O)C2CCC2)CC1 | 0.729 | –
COc1ccc(CN2CCN(Cc3ccc(C)cc3)C(CCO)C2)c(OC)c1 (centres undefined) | – | 0.757
CC(C)(C)CNc1ccc(C(=O)N2CCC(Oc3cccnc3)CC2)cn1 | – | 0.869
COc1cc(OC)c(OC)cc1CN1CCC(CCC(=O)NCC2CCCO2)CC1 (centres undefined) | 0.989 | –
CCCc1cc(CNC(=O)c2ccc(NC(C)(C)C)nc2)on1 | – | 0.907
O=C(c1cccc(F)c1)N1CCC(C2(Cc3ccc(F)cc3)NC(=O)N(CC3CC3)C2=O)CC1 (centres undefined) | 0.848 | –
O=C(CCOc1ccccc1)Nc1cnn(CC(=O)N2CCNC(=O)C2c2cccc(F)c2)c1 (centres undefined) | 0.85 | –
COc1ccc(CCN2CCCC(CN(C)Cc3cnc(SC)nc3)C2)cc1 (centres undefined) | – | 0.716
Cc1nc(C(=O)NCc2cccnc2N(C)CCc2ccccn2)cs1 | – | 0.914
COc1ccc(CN2CCN(C3CCN(c4ccccc4)CC3)CC2CCO)cc1C (centres undefined) | – | 0.894
COc1cc(CN2CCN(Cc3ccccc3OC)CC2CCO)cc(OC)c1 (centres undefined) | – | 0.878
C=CCC(=O)N1CCCC(CCc2ccccc2)C1 (centres undefined) | 0.419 | –
CCN1CCN(C2(C(=O)N(C)Cc3cn(C)nc3C)Cc3ccccc3C2)CC1 | 0.847 | –
Cc1ccccc1Oc1ncccc1CNC(=O)CCc1c(C)noc1C | – | 0.874
CCOC(=O)C1(Cc2ccc(F)cc2F)CCCN(C(=O)C(=O)c2ccccc2)C1 (centres undefined) | – | 0.192
CCN(CC)C1CCN(C(=O)c2cc(NS(=O)(=O)CC)cc3nc(-c4ccccc4)n(C)c23)C1 (centres undefined) | 0.801 | –
COCc1ccc(C(=O)Nc2ccc(-c3nc(CNC(=O)C4CC(=O)N(C(C)C)C4)c(C)o3)cc2)o1 (centres undefined) | 0.968 | –
Cc1cc(C(=O)NCc2cccnc2N2CCCCCCC2)n[nH]1 | – | 0.905

Some values from the entries so far:
In bacterial growth OD600 (polymyxin B 0.75 µg/mL), CCN(CC)C1CCN(C(=O)c2cc(NS(=O)(=O)CC)cc3nc(-c4ccccc4)n(C)c23)C1 (centres undefined) is entered as 0.801
In bacterial growth OD600 (polymyxin B 0.75 µg/mL), COc1cc(OC)c(OC)cc1CN1CCC(CCC(=O)NCC2CCCO2)CC1 (centres undefined) is entered as 0.989
